# Results taken from US10184933B2, “Compositions, systems and methods for gene expression noise drug screening and uses thereof” (priority 2013, dated 2019).
# “Also recorded” adds a separate entry of the source. Counter-ions that a name gives are not always drawn. Like-named read-outs stand apart in the source and are kept apart here. For at least one compound, name, drawing or mass did not settle the structure. Some entries repeat one wording, which the source may state once for all of them.
# Legend:
# Type in all cases: cell-based
# [1] = test system: latent HIV-1 in primary human CD4+ T cells
# Text: Details on the Siliciano T-Cell model of HIV-1 latency can be found in Yang et al., 2009, J Clin Invest 119:3473-3486. Details on the Planelles T-Cell model of HIV-1 latency can be found in Bosque and Planelles, 2009, Blood 113:58-65.
# To test if VMs enhance reactivation in a primary cell model of latency 14 VMs were selected from the 85 VMs initially screened on the JLat cell line. […] Two separate primary cell models of latency were screened (Bosque and Planelles, 2009, Blood 113:58-65; Yang et al., 2009, J Clin Invest 119:3473-3486) The Siliciano model of latency is generated using primary human CD4+ T cells which are transduced with Bcl-2 to allow long-term in vitro survival. The Bcl-2^+ cells are activated with -CD3/-CD28 antibody and infected with a GFP expressing virus. Cells remain in culture for over a month to allow transition into resting memory states and then sorted for GFP-cells after which the sorted cells are the latent pool of cells tested for reactivation. […] Reactivation experiments were designed with a positive control (PMA with Ionomycin or -CD3/-CD28 activation) as well as media only or VM treatment measurements.
# [2] = test system: HIV-1 LTR promoter; conditions: for identified as variability suppressor (VS) in noise screen: FIG. 12
# [3] = test system: latent HIV-1 in JLat 8.6 cells; conditions: for effect on HIV-1 latency reactivation: in combination with TNFα, Prostratin, TSA or SAHA, hydrochloride
# [4] = test system: HIV-1 LTR promoter; assay: Single-cell time-lapse fluorescence microscopy of polyclonal LTR d2GFP cell population; conditions: 10 μM, 24 hour pretreatment, tracked 12 hours, ~500 cells
# Text: Lentiviral vectors expressing the LTR-GFP cassette in the absence of Tat were described (Weinberger et al., 2005, Cell, 122(2):169-182) and used to infect 5×10^5 Jurkat cells at a multiplicity of infection <0.1, resulting in 25,000-50,000 infected cells each presumably with a unique integration site. Cells were then sorted by FACS to isolate green fluorescent protein-labeled (GFP+) cells and fluorescently imaged on glass-bottom dishes in RPMI 1640 with 10% fetal calf serum and 1% penicillin-streptomycin and 10 μM of VM at t=0 h for the population which was pre-treated with VM 1 day before imaging. […] For each trajectory, noise autocorrelation [Φ(t)] and magnitude (CV^2) were calculated using an established noise-processing algorithm (Weinberger at al., 2008, Nature Genetics, 40(4):466-470; Dar at al., 2012, Proc Natl Acad Sci USA 109:17454-17459; Boehm et al., 2013, Cell Cycle 12:452-462).
# To assess whether identified VMs are specific to the integration site of the drug screen target, a polyclonal LTR d2GFP population was treated with select VM hits and imaged using time-lapse single cell fluorescence microscopy (Dar et al., 2012, Proc Natl Acad Sci USA 109:17454-17459; Boehm et al., 2013, Cell Cycle 12:452-462) (FIG. 6C). […]
# [5] = test system: latent HIV-1 in primary T-cells; conditions: primary T-cell model
# Experimental: FIG. 18A schematically depicts a primary T-cell model of HIV-1 latency 48 h after reactivation with PMA or a subset of noise enhancers (% reactivation percentage is calculated relative to maximal reactivation potential). […] The horizontal line represents the mean calculated Bliss Independence Score (C. I. Bliss, Ann. Appl. Biol. 26:585-615 (1939)), a measure for strict additivity for all of the compounds. FIG. 18B schematically depicts stochastic simulations of noise suppression, which reduces noise without altering the mean expression level but limits reactivation induced by an activator. […] Details are described, e.g., in Example 10.
# [6] = Pharmakon 1600 library, 10 uM, 24 hours, FIG. 10
# [7] = Pharmakon 1600 library, 10 uM, 24 hours
SMILES,"identified as variability enhancer (VE) in noise screen [2, 6]",synergy in reactivation of HIV-1 latency [3],also measured
"C#C[C@]1(O)CC[C@H]2[C@@H]3CCc4cc(O)ccc4[C@H]3CC[C@@]21C [V2, ethinyl estradiol]",variability enhancers,synergized,"synergy with activators [1]: synergized with either PMA, prostratin or bryostatin"
"CC(C)(Oc1ccc(CCNC(=O)c2ccc(Cl)cc2)cc1)C(=O)O [V6, bezafibrate]",variability enhancers,synergized,
"CN(C)[C@@H]1C(O)=C(C(N)=O)C(=O)[C@@]2(O)C(O)=C3C(=O)c4c(O)cccc4[C@@](C)(O)[C@H]3[C@H](O)[C@@H]12 [V13, oxytetracycline]",variability enhancers,synergized,high frequency noise magnitude (HF-CV^2) versus untreated polyclonal population [4]: increased high frequency noise magnitude; also recorded: increased noise magnitude trends above the untreated population
"N#C[C@@H]1C[C@@H]2C[C@@H]2N1C(=O)[C@@H](N)C12CC3CC(CC(O)(C3)C1)C2 [V23, saxagliptin]",variability enhancers,synergized,
"CCCCCCc1ccc(O)cc1O [V35, hexylresorcinol]",variability enhancers,synergized,
"C[C@@H](O)[C@H]1C(=O)N2C(C(=O)O)=C(SCCN=CN)C[C@H]12 [V44, imipenem]",,synergized,identified as variability enhancer (VE) in noise screen [2]: variability enhancers
"Cc1nc(Nc2ncc(C(=O)Nc3c(C)cccc3Cl)s2)cc(N2CCN(CCO)CC2)n1 [V67, dasatinib]",variability enhancers,,
"Nc1ccn([C@@H]2CS[C@H](CO)O2)c(=O)n1 [V81, lamivudine]",variability enhancers,synergized,
"COC(=O)C1=C(C)NC(C)=C(C(=O)OCCN2CCN(C(c3ccccc3)c3ccccc3)CC2)C1c1cccc([N+](=O)[O-])c1 (centres unmarked) [VS1, manidipine hydrochloride]",,,"identified as variability suppressor (VS) in noise screen [2, 7]: variability suppressors; effect on HIV-1 latency reactivation [3]: reduces (suppresses) HIV-1 latency reactivation; also recorded: substantially reduced latent reactivation; effect on HIV-1 latency reactivation ([3]; listed as Manidipin HCl): suppress reactivation; effect of noise suppression on latent reactivation [5]: substantially reduced latent reactivation"
Cc1ccc(-c2cc(C(F)(F)F)nn2-c2ccc(S(N)(=O)=O)cc2)cc1 [celecoxib],variability enhancers,,
"Nc1ccn([C@@H]2O[C@H](CO)[C@@H](O)[C@@H]2O)c(=O)n1 [cytarabine, (β-D-arabinofuranosyl)cytosine]",variability enhancers,,
Nc1nc(F)nc2c1ncn2[C@@H]1O[C@H](COP(=O)(O)O)[C@@H](O)[C@@H]1O [fludarabine phosphate],variability enhancers,,
CCC(C)n1ncn(-c2ccc(N3CCN(c4ccc(OCC5COC(Cn6cncn6)(c6ccc(Cl)cc6Cl)O5)cc4)CC3)cc2)c1=O (centres unmarked) [itraconazole],,,"identified as variability suppressor (VS) in noise screen [2, 7]: variability suppressors"
C[C@@H]1O[C@@H](OC[C@H]2O[C@@H](Oc3c(-c4ccc(O)c(O)c4)oc4cc(O)cc(O)c4c3=O)[C@H](O)[C@@H](O)[C@@H]2O)[C@H](O)[C@H](O)[C@H]1O [rutin],variability enhancers,,
